Reference: patent US8835377B2, “Oral delivery of peptide pharmaceutical compositions” (UGP Therapeutics, Inc., priority 2004, dated 2014)
The source gives many values for each of these; only a part stands here.

Assay: Pharmacokinetics after oral capsules (sCT plus Dmt-DALDA with citric acid and lauroyl carnitine), non-enteric coated or enteric coated, in fasted beagle dogs (plasma; ELISA for sCT, HPLC-MS for Dmt-DALDA)
Format: in vivo
Experimental: A second series of tests was carried out, as noted above, using beagle dogs. […] In the experiments represented in FIGS. 2A and 2B, size 00 […] capsules were each filled with 758 mg of a powdered blend consisting of citric acid (643 mg), lauroyl carnitine (66 mg), talc (33 mg), salmon calcitonin (sCT) (13 mg) and Dmt-DALDA (2.4 mg). Half of the capsules were coated with an enteric coating solution of L30D-55, while the remaining 50% of the capsules were not coated. Four fasted dogs were each given 1 uncoated capsule, and 2 weeks later they were each given an enteric coated capsule. After administration of each capsule, samples of blood were taken at 15 minute intervals from an indwelling catheter for up to 4 hours. The blood samples were centrifuged and the resulting plasma supernatants were stored frozen at −20° C. The plasma samples were subsequently analyzed for sCT by a direct ELISA, and for Dmt-DALDA by HPLC-mass spectrometry performed as set forth in Wan, H. and Desiderio, D., Quantitation of [DMT^1] DALDA in ovine plasma by on-line liquid chromatography/quadrapole time-of-flight mass spectrometry, Rapid Communications in Mass Spectrometry, 2003; 17, 538-546, the contents of which are incorporated herein by reference.
The results summarized in FIGS. 2A and 2B as plasma peptide concentration normalized to a 1 mg dose as a function of time relative to the average Tmax, (i.e., the time at which the maximum amount of peptide was detected) indicate that both peptides, i.e., sCT and Dmt-DALDA, were detected in dogs given uncoated or enteric coated capsules. […] Table DI (below) sets forth the values upon which the curves in FIGS. 2A and 2B are based. The results are summarized in the tables as plasma peptide concentration normalized to a 1 mg dose as a function of time. Table III, moreover, provides the standard deviations for the data obtained regarding each of the test dogs, which standard deviations are also indicated in FIGS. 2A and 2B.
Table IV (below) summarizes the pharmacokinetic parameters in dogs of orally administered sCT and Dmt-DALDA when administered in non-enteric coated versus enteric coated capsules. Peptide was not detected from 1 dog in each group due to (a) Dog 3 vomiting the uncoated capsule and (b) delayed gastric emptying in Dog 2 provided with an enteric coated capsule. Cmax and AUC are as defined with regard to Table H above.

[1] = enteric coated capsule, Dog 1, 225 min
[2] = enteric coated capsule, Dog 1, 240 min
[3] = enteric coated capsule, Dog 2 (delayed gastric emptying), 225 min
[4] = enteric coated capsule, Dog 2 (delayed gastric emptying), 240 min
[5] = enteric coated capsule, Dog 3, 210 min
[6] = enteric coated capsule, Dog 3, 225 min
[7] = enteric coated capsule, Dog 3, 240 min
[8] = enteric coated capsule, Dog 4, 210 min
[9] = enteric coated capsule, Dog 4, 225 min
[10] = enteric coated capsule, Dog 4, 240 min
[11] = non-enteric coated capsule, Dog 1, 0 min
[12] = non-enteric coated capsule, Dog 1, 15 min
[13] = non-enteric coated capsule, Dog 1, 30 min
[14] = non-enteric coated capsule, Dog 2, 0 min
[15] = non-enteric coated capsule, Dog 2, 15 min
[16] = non-enteric coated capsule, Dog 2, 30 min
[17] = non-enteric coated capsule, Dog 3 (vomited capsule), 0 min
[18] = non-enteric coated capsule, Dog 3 (vomited capsule), 15 min
[19] = non-enteric coated capsule, Dog 3 (vomited capsule), 30 min
[20] = non-enteric coated capsule, Dog 4, 0 min
[21] = non-enteric coated capsule, Dog 4, 15 min
[22] = non-enteric coated capsule, Dog 4, 30 min

| SMILES | plasma peptide concentration normalized to a 1 mg dose [1] [pg/mL] | plasma peptide concentration normalized to a 1 mg dose [2] [pg/mL] | plasma peptide concentration normalized to a 1 mg dose [3] [pg/mL] | plasma peptide concentration normalized to a 1 mg dose [4] [pg/mL] | plasma peptide concentration normalized to a 1 mg dose [5] [pg/mL] | plasma peptide concentration normalized to a 1 mg dose [6] [pg/mL] | plasma peptide concentration normalized to a 1 mg dose [7] [pg/mL] | plasma peptide concentration normalized to a 1 mg dose [8] [pg/mL] | plasma peptide concentration normalized to a 1 mg dose [9] [pg/mL] | plasma peptide concentration normalized to a 1 mg dose [10] [pg/mL] | plasma peptide concentration normalized to a 1 mg dose [11] [pg/mL] | plasma peptide concentration normalized to a 1 mg dose [12] [pg/mL] | plasma peptide concentration normalized to a 1 mg dose [13] [pg/mL] | plasma peptide concentration normalized to a 1 mg dose [14] [pg/mL] | plasma peptide concentration normalized to a 1 mg dose [15] [pg/mL] | plasma peptide concentration normalized to a 1 mg dose [16] [pg/mL] | plasma peptide concentration normalized to a 1 mg dose [17] [pg/mL] | plasma peptide concentration normalized to a 1 mg dose [18] [pg/mL] | plasma peptide concentration normalized to a 1 mg dose [19] [pg/mL] | plasma peptide concentration normalized to a 1 mg dose [20] [pg/mL] | further results |
| --- | --- | --- | --- | --- | --- | --- | --- | --- | --- | --- | --- | --- | --- | --- | --- | --- | --- | --- | --- | --- | --- |
| Cc1cc(O)cc(C)c1C[C@H](N)C(=O)N[C@H](CCCNC(=N)N)C(=O)N[C@@H](Cc1ccccc1)C(=O)N[C@@H](CCCCN)C(N)=O [Dmt-DALDA, H-2,6-dimethyltyrosine-D-Arginine-Phenylalanine-Lysine-NH2] | 2896 | 2527 | 0 | 0 | 4772 | 4884 | 3651 | 2664 | 2490 | 1851 | 0 | 0 | 4108 | 0 | 0 | 6473 | 0 | 0 | 0 | 0 | plasma peptide concentration normalized to a 1 mg dose [21]: 0 pg/mL; plasma peptide concentration normalized to a 1 mg dose [22]: 5456 pg/mL |
| CC(C)C[C@H](NC(=O)[C@H](CCCCN)NC(=O)CNC(=O)[C@H](CC(C)C)NC(=O)[C@@H](NC(=O)[C@@H]1CSSC[C@H](N)C(=O)N[C@@H](CO)C(=O)N[C@@H](CC(N)=O)C(=O)N[C@@H](CC(C)C)C(=O)N[C@@H](CO)C(=O)N[C@@H]([C@@H](C)O)C(=O)N1)C(C)C)C(=O)N[C@@H](CO)C(=O)N[C@@H](CCC(N)=O)C(=O)N[C@@H](CCC(=O)O)C(=O)N[C@@H](CC(C)C)C(=O)N[C@@H](Cc1c[nH]cn1)C(=O)N[C@@H](CCCCN)C(=O)N[C@@H](CC(C)C)C(=O)N[C@@H](CCC(N)=O)C(=O)N[C@H](C(=O)N[C@@H](Cc1ccc(O)cc1)C(=O)N1CCC[C@H]1C(=O)N[C@@H](CCCNC(=N)N)C(=O)N[C@H](C(=O)N[C@@H](CC(N)=O)C(=O)N[C@H](C(=O)NCC(=O)N[C@@H](CO)C(=O)NCC(=O)N[C@H](C(=O)N1CCC[C@H]1C(N)=O)[C@@H](C)O)[C@@H](C)O)[C@@H](C)O)[C@@H](C)O [sCT, salmon calcitonin] | 331 | 179 | 0 | 0 | 1194 | 734 | 626 | 867 | 686 | 515 | 0 | 0 | 2648 | 0 | 0 | 3148 | 0 | 0 | 0 | 0 | plasma peptide concentration normalized to a 1 mg dose [21]: 0 pg/mL; plasma peptide concentration normalized to a 1 mg dose [22]: 971 pg/mL |
